Results on five molecules are retold here after PMC10117376.

For one experiment, the target named is 2×FLAG/V5-TBR1 (human) (UniProt Q16650). Put plainly: affinity purification with mass spectrometry; nuclear extract of HEK293 cells stably expressing 2xFLAG/V5-TBR1 on anti-FLAG M2 agarose beads, 3 h at 4°C, buffer C-100 (20 mM HEPES pH 7.6, 20% glycerol, 100 mM KCl, 1.5 mM MgCl2, 0.2 mM EDTA) with benzonase and ethidium bromide; eluted with FLAG-tripeptide; two independent purifications (AP1, AP2); untransfected cells as control.

Experiment [1] concerns the target T1, 2×FLAG/V5-TBR1 (human), Q16650.
T1 chain: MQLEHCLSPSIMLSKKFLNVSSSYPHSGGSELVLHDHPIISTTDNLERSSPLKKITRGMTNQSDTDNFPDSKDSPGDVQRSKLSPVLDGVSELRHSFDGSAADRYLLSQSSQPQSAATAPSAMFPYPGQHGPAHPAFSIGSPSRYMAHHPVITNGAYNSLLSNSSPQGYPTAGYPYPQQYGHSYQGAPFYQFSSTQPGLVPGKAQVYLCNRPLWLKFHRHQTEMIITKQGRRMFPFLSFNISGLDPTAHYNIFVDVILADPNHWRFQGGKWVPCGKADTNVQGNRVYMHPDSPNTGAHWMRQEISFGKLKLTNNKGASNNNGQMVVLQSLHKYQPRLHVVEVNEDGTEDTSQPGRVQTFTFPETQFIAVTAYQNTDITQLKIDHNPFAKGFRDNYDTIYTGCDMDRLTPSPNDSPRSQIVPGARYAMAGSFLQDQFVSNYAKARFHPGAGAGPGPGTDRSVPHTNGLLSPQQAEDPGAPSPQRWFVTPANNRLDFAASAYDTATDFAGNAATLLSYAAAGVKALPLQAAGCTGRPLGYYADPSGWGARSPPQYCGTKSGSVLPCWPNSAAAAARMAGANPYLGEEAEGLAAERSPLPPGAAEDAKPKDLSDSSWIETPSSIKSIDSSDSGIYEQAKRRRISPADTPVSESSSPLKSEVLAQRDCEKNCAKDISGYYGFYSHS
The description is as above. The note with it: remark: other sources report otherwise.

These are yes or no findings as the source states them, for the method shown. In cells and extracts the contact can be indirect. Here binding means that the protein was enriched with, or labelled near, the bait; the list need not be complete. For some assays here: Where a sequence is shown, tags or fusion partners need not be part of it.

B1: CTNND1 (endogenous) (protein, UniProt O60716 1-968)
chain: MDDSEVESTASILASVKEQEAQFEKLTRALEEERRHVSAQLERVRVSPQDANPLMANGTLTRRHQNGRFVGDADLERQKFSDLKLNGPQDHSHLLYSTIPRMQEPGQIVETYTEEDPEGAMSVVSVETSDDGTTRRTETTVKKVVKTVTTRTVQPVAMGPDGLPVDASSVSNNYIQTLGRDFRKNGNGGPGPYVGQAGTATLPRNFHYPPDGYSRHYEDGYPGGSDNYGSLSRVTRIEERYRPSMEGYRAPSRQDVYGPQPQVRVGGSSVDLHRFHPEPYGLEDDQRSMGYDDLDYGMMSDYGTARRTGTPSDPRRRLRSYEDMIGEEVPSDQYYWAPLAQHERGSLASLDSLRKGGPPPPNWRQPELPEVIAMLGFRLDAVKSNAAAYLQHLCYRNDKVKTDVRKLKGIPVLVGLLDHPKKEVHLGACGALKNISFGRDQDNKIAIKNCDGVPALVRLLRKARDMDLTEVITGTLWNLSSHDSIKMEIVDHALHALTDEVIIPHSGWEREPNEDCKPRHIEWESVLTNTAGCLRNVSSERSEARRKLRECDGLVDALIFIVQAEIGQKDSDSKLVENCVCLLRNLSYQVHREIPQAERYQEAAPNVANNTGPHAASCFGAKKGKDEWFSRGKKPIEDPANDTVDFPKRTSPARGYELLFQPEVVRIYISLLKESKTPAILEASAGAIQNLCAGRWTYGRYIRSALRQEKALSAIADLLTNEHERVVKAASGALRNLAVDARNKELIGKHAIPNLVKNLPGGQQNSSWNFSEDTVISILNTINEVIAENLEAAKKLRETQGIEKLVLINKSGNRSEKEVRAAALVLQTIWGYKELRKPLEKEGWKKSDFQVNLNNASRSQSSHSYDDSTLPLIDRNQKSDKKPDREEIQMSNMGSNTKSLDNNYSTPNERGDHNRTLDRSGDLGDMEPLKGTTPLMQDEGQESLEEELDVLVLDDEGGQVSYPSMQKI
For the molecule B1, the binding entry with 2×FLAG/V5-TBR1 (human) is “binds”.

B2: POGZ (protein, UniProt Q7Z3K3 1-1410)
chain: MADTDLFMECEEEELEPWQKISDVIEDSVVEDYNSVDKTTTVSVSQQPVSAPVPIAAHASVAGHLSTSTTVSSSGAQNSDSTKKTLVTLIANNNAGNPLVQQGGQPLILTQNPAPGLGTMVTQPVLRPVQVMQNANHVTSSPVASQPIFITTQGFPVRNVRPVQNAMNQVGIVLNVQQGQTVRPITLVPAPGTQFVKPTVGVPQVFSQMTPVRPGSTMPVRPTTNTFTTVIPATLTIRSTVPQSQSQQTKSTPSTSTTPTATQPTSLGQLAVQSPGQSNQTTNPKLAPSFPSPPAVSIASFVTVKRPGVTGENSNEVAKLVNTLNTIPSLGQSPGPVVVSNNSSAHGSQRTSGPESSMKVTSSIPVFDLQDGGRKICPRCNAQFRVTEALRGHMCYCCPEMVEYQKKGKSLDSEPSVPSAAKPPSPEKTAPVASTPSSTPIPALSPPTKVPEPNENVGDAVQTKLIMLVDDFYYGRDGGKVAQLTNFPKVATSFRCPHCTKRLKNNIRFMNHMKHHVELDQQNGEVDGHTICQHCYRQFSTPFQLQCHLENVHSPYESTTKCKICEWAFESEPLFLQHMKDTHKPGEMPYVCQVCQYRSSLYSEVDVHFRMIHEDTRHLLCPYCLKVFKNGNAFQQHYMRHQKRNVYHCNKCRLQFLFAKDKIEHKLQHHKTFRKPKQLEGLKPGTKVTIRASRGQPRTVPVSSNDTPPSALQEAAPLTSSMDPLPVFLYPPVQRSIQKRAVRKMSVMGRQTCLECSFEIPDFPNHFPTYVHCSLCRYSTCCSRAYANHMINNHVPRKSPKYLALFKNSVSGIKLACTSCTFVTSVGDAMAKHLVFNPSHRSSSILPRGLTWIAHSRHGQTRDRVHDRNVKNMYPPPSFPTNKAATVKSAGATPAEPEELLTPLAPALPSPASTATPPPTPTHPQALALPPLATEGAECLNVDDQDEGSPVTQEPELASGGGGSGGVGKKEQLSVKKLRVVLFALCCNTEQAAEHFRNPQRRIRRWLRRFQASQGENLEGKYLSFEAEEKLAEWVLTQREQQLPVNEETLFQKATKIGRSLEGGFKISYEWAVRFMLRHHLTPHARRAVAHTLPKDVAENAGLFIDFVQRQIHNQDLPLSMIVAIDEISLFLDTEVLSSDDRKENALQTVGTGEPWCDVVLAILADGTVLPTLVFYRGQMDQPANMPDSILLEAKESGYSDDEIMELWSTRVWQKHTACQRSKGMLVMDCHRTHLSEEVLAMLSASSTLPAVVPAGCSSKIQPLDVCIKRTVKNFLHKKWKEQAREMADTACDSDVLLQLVLVWLGEVLGVIGDCPELVQRSFLVASVLPGPDGNINSPTRNADMQEELIASLEEQLKLSGEHSESSTPRPRSSPEETIEPESLHQLFEGESETESFYGFEEADLDLMEI
Regarding B2, in the experiment with 2×FLAG/V5-TBR1 (human), the binding entry is given as “binds”.

B3: NR2F2 (endogenous) (protein, UniProt P24468 1-414)
chain: MAMVVSTWRDPQDEVPGSQGSQASQAPPVPGPPPGAPHTPQTPGQGGPASTPAQTAAGGQGGPGGPGSDKQQQQQHIECVVCGDKSSGKHYGQFTCEGCKSFFKRSVRRNLSYTCRANRNCPIDQHHRNQCQYCRLKKCLKVGMRREAVQRGRMPPTQPTHGQFALTNGDPLNCHSYLSGYISLLLRAEPYPTSRFGSQCMQPNNIMGIENICELAARMLFSAVEWARNIPFFPDLQITDQVALLRLTWSELFVLNAAQCSMPLHVAPLLAAAGLHASPMSADRVVAFMDHIRIFQEQVEKLKALHVDSAEYSCLKAIVLFTSDACGLSDVAHVESLQEKSQCALEEYVRSQYPNQPTRFGKLLLRLPSLRTVSSSVIEQLFFVRLVGKTPIETLIRDMLLSGSSFNWPYMAIQ
For B3, the binding result with 2×FLAG/V5-TBR1 (human) was “binds”.

B4: ZMYM2 (endogenous) (protein, UniProt Q9UBW7 1-1377)
chain: MDTSSVGGLELTDQTPVLLGSTAMATSLTNVGNSFSGPANPLVSRSNKFQNSSVEDDDDVVFIEPVQPPPPSVPVVADQRTITFTSSKNEELQGNDSKITPSSKELASQKGSVSETIVIDDEEDMETNQGQEKNSSNFIERRPPETKNRTNDVDFSTSSFSRSKVNAGMGNSGITTEPDSEIQIANVTTLETGVSSVNDGQLENTDGRDMNLMITHVTSLQNTNLGDVSNGLQSSNFGVNIQTYTPSLTSQTKTGVGPFNPGRMNVAGDVFQNGESATHHNPDSWISQSASFPRNQKQPGVDSLSPVASLPKQIFQPSVQQQPTKPVKVTCANCKKPLQKGQTAYQRKGSAHLFCSTTCLSSFSHKPAPKKLCVMCKKDITTMKGTIVAQVDSSESFQEFCSTSCLSLYEDKQNPTKGALNKSRCTICGKLTEIRHEVSFKNMTHKLCSDHCFNRYRMANGLIMNCCEQCGEYLPSKGAGNNVLVIDGQQKRFCCQSCVSEYKQVGSHPSFLKEVRDHMQDSFLMQPEKYGKLTTCTGCRTQCRFFDMTQCIGPNGYMEPYCSTACMNSHKTKYAKSQSLGIICHFCKRNSLPQYQATMPDGKLYNFCNSSCVAKFQALSMQSSPNGQFVAPSDIQLKCNYCKNSFCSKPEILEWENKVHQFCSKTCSDDYKKLHCIVTYCEYCQEEKTLHETVNFSGVKRPFCSEGCKLLYKQDFARRLGLRCVTCNYCSQLCKKGATKELDGVVRDFCSEDCCKKFQDWYYKAARCDCCKSQGTLKERVQWRGEMKHFCDQHCLLRFYCQQNEPNMTTQKGPENLHYDQGCQTSRTKMTGSAPPPSPTPNKEMKNKAVLCKPLTMTKATYCKPHMQTKSCQTDDTWRTEYVPVPIPVPVYIPVPMHMYSQNIPVPTTVPVPVPVPVFLPAPLDSSEKIPAAIEELKSKVSSDALDTELLTMTDMMSEDEGKTETTNINSVIIETDIIGSDLLKNSDPETQSSMPDVPYEPDLDIEIDFPRAAEELDMENEFLLPPVFGEEYEEQPRPRSKKKGAKRKAVSGYQSHDDSSDNSECSFPFKYTYGVNAWKHWVKTRQLDEDLLVLDELKSSKSVKLKEDLLSHTTAELNYGLAHFVNEIRRPNGENYAPDSIYYLCLGIQEYLCGSNRKDNIFIDPGYQTFEQELNKILRSWQPSILPDGSIFSRVEEDYLWRIKQLGSHSPVALLNTLFYFNTKYFGLKTVEQHLRLSFGTVFRHWKKNPLTMENKACLRYQVSSLCGTDNEDKITTGKRKHEDDEPVFEQIENTANPSRCPVKMFECYLSKSPQNLNQRMDVFYLQPECSSSTDSPVWYTSTSLDRNTLENMLVRVLLVKDIYDKDNYELDEDTD
On to B4, for which the binding result with 2×FLAG/V5-TBR1 (human) is listed as “binds”.

B5: CASK, O14936 1-926 (protein)
chain: MADDDVLFEDVYELCEVIGKGPFSVVRRCINRETGQQFAVKIVDVAKFTSSPGLSTEDLKREASICHMLKHPHIVELLETYSSDGMLYMVFEFMDGADLCFEIVKRADAGFVYSEAVASHYMRQILEALRYCHDNNIIHRDVKPHCVLLASKENSAPVKLGGFGVAIQLGESGLVAGGRVGTPHFMAPEVVKREPYGKPVDVWGCGVILFILLSGCLPFYGTKERLFEGIIKGKYKMNPRQWSHISESAKDLVRRMLMLDPAERITVYEALNHPWLKERDRYAYKIHLPETVEQLRKFNARRKLKGAVLAAVSSHKFNSFYGDPPEELPDFSEDPTSSGLLAAERAVSQVLDSLEEIHALTDCSEKDLDFLHSVFQDQHLHTLLDLYDKINTKSSPQIRNPPSDAVQRAKEVLEEISCYPENNDAKELKRILTQPHFMALLQTHDVVAHEVYSDEALRVTPPPTSPYLNGDSPESANGDMDMENVTRVRLVQFQKNTDEPMGITLKMNELNHCIVARIMHGGMIHRQGTLHVGDEIREINGISVANQTVEQLQKMLREMRGSITFKIVPSYRTQSSSCERDSPSTSRQSPANGHSSTNNSVSDLPSTTQPKGRQIYVRAQFEYDPAKDDLIPCKEAGIRFRVGDIIQIISKDDHNWWQGKLENSKNGTAGLIPSPELQEWRVACIAMEKTKQEQQASCTWFGKKKKQYKDKYLAKHNAVFDQLDLVTYEEVVKLPAFKRKTLVLLGAHGVGRRHIKNTLITKHPDRFAYPIPHTTRPPKKDEENGKNYYFVSHDQMMQDISNNEYLEYGSHEDAMYGTKLETIRKIHEQGLIAILDVEPQALKVLRTAEFAPFVVFIAAPTITPGLNEDESLQRLQKESDILQRTYAHYFDLTIINNEIDETIRHLEEAVELVCTAPQWVPVSWVY
Consider B5, for which, in experiment [1], the binding result is reported as “binds”.
